## Library screening results

Data taken from ChEMBL document CHEMBL3988442, “University of Dundee, Small-Polar-MMV Screening Library” (2021).

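Whole-cell assay for inhibitors of Mycobacterium tuberculosis growth, labelled Cornell in the record; the read-out is not stated. The concentration is filed as 10 mM, unlikely as a test dose, so the dose is not known. The record gives no direction; compounds strong in two other growth screens of this library score well above the rest, so higher reads as stronger inhibition. About 53,000 compounds were tested under these conditions; 1.7% (about 900) showed 50% or more at least once.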

Each number is a percent effect as filed. How 0% and 100% were set is not recorded. Most values in the screen are low, and negative values occur. The compounds are a random part of those screened.

| SMILES | Percent Effect |
|---|---|
| `CC(C)CCC1=NC2(CCN(C(=O)CN3CCCC3=O)CC2)C(=O)N1` | 5.664% |
| `CC1(C)CNC(=O)c2nc(CCN3CCC(O)CC3)[nH]c2C1` | -5.074% |
| `COCc1cncc2c1CCN(Cc1cnn(C)c1)C2.O=C(O)C(F)(F)F.O=C(O)C(F)(F)F` | -51.62% |
| `CN(C)C1CC2(CCN(C(=O)c3csnn3)CC2)c2ccccc21.O=C(O)C(F)(F)F` (stereo not shown) | 12.37% |
| `Cc1ccc(C2CSCCN2C(=O)c2ccccn2)cc1` (stereo not shown) | 23.35% |
| `CC(C)c1noc(OCC(=O)N(C)C(C)C)n1` | 10.11% |
| `CCN(C(=O)C(C)C)C(c1cccnc1)c1ccc2c(c1)CCO2` (stereo not shown) | -26.52% |
| `Cc1cccc(CN2CCCC2c2cncc(Nc3nncs3)n2)c1` (stereo not shown) | 14.43% |
| `Cc1nc(N2CCN(C(=O)CC3CCCC3)CC2)c2cnn(C)c2n1` | 28.87% |
| `[H][C@@]12C[C@H](C)O[C@]1([H])CCN(C(=O)CC1CC1)C2` | 2.64% |
| `CS(=O)(=O)CCCNc1cccc(COC2CCCCC2)c1` | 21.96% |
| `CC(=O)N1CCC2(CCCN(C(=O)c3ccc(Cl)c(C(F)(F)F)c3)C2)C1` (stereo not shown) | 15.47% |
| `CN(C)[C@H]1CCCCN(C(=O)c2cccc(N3CCS(=O)(=O)CC3)c2)C1` | -27.17% |
| `O=C(O)C(F)(F)F.c1ccc(CN2CCCn3nnc(Cn4cccc4)c3C2)nc1` | -28.51% |
| `CN1CC(C(=O)NCCc2ccn(-c3ccc(F)cc3)n2)CC1=O` (stereo not shown) | 8.901% |
| `CC(NC(=O)COc1ccc(Cl)cc1Cl)c1nncn1C(C)C` (stereo not shown) | -7.065% |
| `Cn1nc2c(c1NC(=O)c1cccs1)CCC2` | 1.253% |
| `Cn1nc(Cl)cc1C(=O)N1CCC(C(=O)c2nc3ccccc3s2)CC1` | -10.64% |
| `Cc1cc(NC(=O)NCCC(=O)N2CCCc3ccccc32)no1` | 0.1643% |
| `O=C(O)[C@@H]1CN(C(=O)CSCC2CC2)C[C@H]1c1ccncc1` | -36.84% |
| `CC(C)Sc1ncccc1C(=O)NCc1ccc(O)cc1` | -23.95% |
| `CC(C)OC(=O)N1CCC(c2nnc(Cn3ccnc3)n2C)CC1` | -17.98% |
| `O=C(O)c1ccc(N2CCC(Cc3ccccc3)CC2)nn1` | 33.95% |
| `O=C(O)C(F)(F)F.O=C(O)C(F)(F)F.[H][C@@]12CN(Cc3ccncc3)C[C@]1([H])[C@H](OC)CCN2S(=O)(=O)N(C)C` | -18.43% |
| `CCn1ccnc1CN1CCCN(C(=O)c2cncnc2C)CC1` | 10.04% |
| `COc1cc(CCNC(=O)NCCC2CCCO2)ccc1C` (stereo not shown) | 6.351% |
| `COc1cc(-c2cc(=O)[nH]cn2)cc(OC)c1OC` | 11.81% |
| `O=C(O)C(F)(F)F.[H][C@@]12CCN(c3cccnc3)C[C@]1([H])CN(C(=O)c1ccc(F)cc1)C2` | -2.234% |
| `CC(C)(C)c1noc(CNc2ccccc2N2CCC(O)CC2)n1` | 1.018% |
| `CN(CC1CC1)c1ccc2ccc(C(=O)NCCN3CCOCC3)cn12` | 2.131% |
| `O=C(O)C(F)(F)F.O=C(O)C(F)(F)F.[H][C@@]12C[C@@H](C(=O)NC)N(C(C)C)[C@]1([H])CN(Cc1csc(C)n1)C2` | 8.118% |
| `O=C1CSC(c2ccc3c(c2)OCO3)c2cnn(C3CCCCC3)c2N1` (stereo not shown) | 2.941% |
| `COc1cccc(OCC2CCCN(Cc3ccncc3)C2)c1` (stereo not shown) | -3.464% |
| `[H][C@]12CC[C@](O)(CC1)C(COC)N2C(=O)N1CCOCC1` (stereo partly shown) | -3.476% |
| `Cc1cc(C(=O)NC(C)C(=O)Nc2cc(F)ccc2C)nc(C)n1` (stereo not shown) | 5.662% |
| `[H][C@@]12COC[C@]1(CNC(=O)c1ccno1)CN(Cc1cccnc1OC)C2` | 10.6% |
| `Fc1ccc(CN2CCOC[C@H](Oc3cccnc3)C2)cc1` | -26.93% |
| `CC(=O)NS(=O)(=O)c1ccc2c(c1)N(C)CCC2` | 6.591% |
| `O=C(CCN1CCCC1c1cccs1)N1CCc2sccc2C1` (stereo not shown) | 17.87% |
| `CNc1cncc(C2CCN(C(=O)c3coc(C)n3)CC2)n1` | 8.689% |
| `CN1CCN(c2ncnc3c2CCN(S(=O)(=O)C2CC2)CC3)CC1.O=C(O)C(F)(F)F` | 4.581% |
| `O=C(c1ccc2nncn2c1)N1CCCC(n2ccnc2)C1` (stereo not shown) | -0.08581% |
| `Cc1c[nH]c(CN(C)c2nc(C3CCCC3)nc3c2cnn3C)n1` | 28.06% |
| `O=C(NCCn1cccc1)C1CCN(C2CCCCC2)CC1` | 17.36% |
| `CCc1nnc2n1CCN(C(=O)CCOc1ccc(C)cc1C)C2` | 4.209% |
| `CC(=O)N1CCC(c2nn(C)c3nccnc23)C1` (stereo not shown) | -21.75% |
| `O=C(Nc1ccc(-n2cccn2)cc1)N1C[C@H](O)[C@@H](N2CCOCC2)C1` | 9.218% |
| `CN(CC1(O)CCN(c2ccccn2)C1)C(=O)Cc1ccsc1` (stereo not shown) | -11.31% |
| `CCc1n[nH]c(C2CN(C(=O)c3ncoc3C(C)C)CCO2)n1` (stereo not shown) | 18.49% |
| `COc1ccc2c(c1)CC(C1CCOCC1)N(C(=O)c1cnccn1)C2` (stereo not shown) | 10.38% |
| `O=c1cc(N2CCCC2)cnn1CC(F)F` | 11.23% |
| `Cc1cccc(C(C(=O)N(C)Cc2ccon2)N(C)C)c1` (stereo not shown) | -14.17% |
| `CCS(=O)(=O)N1CCC2(CCC(N3CCCC3)c3ccccc32)CC1.O=C(O)C(F)(F)F` (stereo not shown) | 22.32% |
| `O=C1CCCN1Cc1ccc(C(=O)N2CCCC2c2cccs2)cc1` (stereo not shown) | 11.05% |
| `CCOc1ccc(SCCNS(=O)(=O)CC)cc1` | 15.79% |

Repeated from the top, 7 entries:

SMILES,Percent Effect
CC(C)CCC1=NC2(CCN(C(=O)CN3CCCC3=O)CC2)C(=O)N1,5.664%
CC1(C)CNC(=O)c2nc(CCN3CCC(O)CC3)[nH]c2C1,-5.074%
COCc1cncc2c1CCN(Cc1cnn(C)c1)C2.O=C(O)C(F)(F)F.O=C(O)C(F)(F)F,-51.62%
CN(C)C1CC2(CCN(C(=O)c3csnn3)CC2)c2ccccc21.O=C(O)C(F)(F)F (stereo not shown),12.37%
Cc1ccc(C2CSCCN2C(=O)c2ccccn2)cc1 (stereo not shown),23.35%
CC(C)c1noc(OCC(=O)N(C)C(C)C)n1,10.11%
CCN(C(=O)C(C)C)C(c1cccnc1)c1ccc2c(c1)CCO2 (stereo not shown),-26.52%